# Measured values as given in PMC7819943, “Rice protein-binding microarrays: a tool to detect cis-acting elements near promoter regions in rice”.
# Chains of the proteins cited; added tags and fusions are not shown.
# UniProt Q0JBA9, entry or part of it: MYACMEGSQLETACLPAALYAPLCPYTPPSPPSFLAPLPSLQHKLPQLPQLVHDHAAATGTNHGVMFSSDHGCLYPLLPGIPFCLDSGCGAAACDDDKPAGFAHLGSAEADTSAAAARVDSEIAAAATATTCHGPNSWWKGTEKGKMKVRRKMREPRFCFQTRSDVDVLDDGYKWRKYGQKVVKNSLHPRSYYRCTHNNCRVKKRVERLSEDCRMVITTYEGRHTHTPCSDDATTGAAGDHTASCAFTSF
# Some of the results follow.
# Molecular target: OsWRKY34 (Oryza sativa, UniProt Q0JBA9 1-250)
# Test: protein-binding microarray (RPBM); PBS, 2% BSA, 51.3 ng/ul salmon testes DNA, 50 uM zinc acetate, 200 nM TF, 25 C, 1 h; high values mean tight binding
# Conditions: protein: recombinant; tags: N-terminal polyhistidine and DsRed monomer fusion (pET32a); label: CyDye5-dUTP incorporated in the synthesized complementary strand; 3' TTTTT single-stranded linker to array surface; dsDNA, one strand shown
# Outline: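 Binding signal here means per-feature fluorescence intensity in arbitrary units. The values were read on an Axon 4000B scanner after a custom Agilent array, double-stranded by primer extension with Cy5-dUTP, was incubated with 200 nM protein at 25 °C for 1 h in PBS with 2% BSA, salmon testes DNA and 50 µM zinc acetate, then washed. The proteins were transcription factors with an N-terminal polyhistidine tag and DsRed, expressed in E. coli BL21-CodonPlus and purified on Ni–NTA.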
row,Sequence,binding signal
1,ACATAACACAGACTCACATTGCCTACGCCGAAATGTTACACGGAGTCACCTAGTGCAG,8560 fluorescence intensity (a.u.)
2,GAAGGGTTTTTGGGTTTCGCCGCGTCACTAGGTTTTGTGGCGGAGTCACCTAGTGCAG,8520 fluorescence intensity (a.u.)
3,GCTGGCATATGTATCCCTTACACATCATCACCCAGTGTTCCGGAGTCACCTAGTGCAG,10800 fluorescence intensity (a.u.)
4,GGCTGCCAACTTCCATTCTCCATCCACCCAATTAATACAGCGGAGTCACCTAGTGCAG,8770 fluorescence intensity (a.u.)
5,ACTACGTTTAATACTTCAAATGTGTCTCTGTATATCCGATCGGAGTCACCTAGTGCAG,8760 fluorescence intensity (a.u.)
6,CGTTCGCTCGCTCGCTCGCTCGCCTCCAGATCTGGAGGCGCGGAGTCACCTAGTGCAG,8750 fluorescence intensity (a.u.)
7,CGTCCTCTTGTACCGGCAGTTCGTCTGCTGCTCCGCGAAGCGGAGTCACCTAGTGCAG,8200 fluorescence intensity (a.u.)
8,GGGTGGTGCACTCCATTCCAGTCCACACTCCGCGCTCCCGCGGAGTCACCTAGTGCAG,8090 fluorescence intensity (a.u.)
9,GTAGCAATAGATCCCGTTGTGTAGCTGCCCTCTATTGTTTCGGAGTCACCTAGTGCAG,9790 fluorescence intensity (a.u.)
10,TCTCTGTTCTTGCCTTCGCTAGCCAGATCTAACGCACTCACGGAGTCACCTAGTGCAG,9510 fluorescence intensity (a.u.)
11,CACACACGCACCATTTACCCCATAATTGTTTTCTGAGTAACGGAGTCACCTAGTGCAG,10300 fluorescence intensity (a.u.)
12,GCTGCACCTGTTGTGGTGCCATCATCTGTTCCTATGCCTTCGGAGTCACCTAGTGCAG,9390 fluorescence intensity (a.u.)
13,TACTCGTATTATGGCACCCACCTATATTATTCAAATATTTCGGAGTCACCTAGTGCAG,8750 fluorescence intensity (a.u.)
14,TCCACCCGCCGCCACGCTCGCCCTATGCTTTTCTGCCCGCCGGAGTCACCTAGTGCAG,9440 fluorescence intensity (a.u.)
15,TTTGTTATTACTAGCACCGGGCAATATTTTCTCCATTTTGCGGAGTCACCTAGTGCAG,8940 fluorescence intensity (a.u.)
16,AAGAATTCAGAGTCAAATTTCTCAGCCACCTCGCCTATATCGGAGTCACCTAGTGCAG,8660 fluorescence intensity (a.u.)
17,CATATATATTGTTGGGGAGGTTGCAAAGTGCAAAAAATTACGGAGTCACCTAGTGCAG,10500 fluorescence intensity (a.u.)
18,ACATGATGCCTCTAGCATGTTATCGCGTTACTGGTATGTTCGGAGTCACCTAGTGCAG,8570 fluorescence intensity (a.u.)
19,TTGCAAACACACACACATTCATCTCTCCCTTTTTTACCACCGGAGTCACCTAGTGCAG,9200 fluorescence intensity (a.u.)
20,CTATCTATCATCTCTTCTACTGGTAAATATCGGCACATATCGGAGTCACCTAGTGCAG,8030 fluorescence intensity (a.u.)
21,CATATACTTCATCTTTTTTTCCTTGGTATCGTCAACTCCCCGGAGTCACCTAGTGCAG,9960 fluorescence intensity (a.u.)

row,Sequence,binding signal
1,AAATTACTTCGTCCAGTTTTTAATACACGGCAGCGTCGTTCGGAGTCACCTAGTGCAG,8040 fluorescence intensity (a.u.)
2,ACAACGCATTTCCATTTCTACTCTGCCCCTGGTAAATTACCGGAGTCACCTAGTGCAG,12400 fluorescence intensity (a.u.)
3,ACAAGTATCGCAACTGTTTGACTCAGGCCACATCTCCACTCGGAGTCACCTAGTGCAG,8430 fluorescence intensity (a.u.)
4,GCTTTGGTCGGTTGGGGTGGGCTGGATGCGCCTCCGCGCTCGGAGTCACCTAGTGCAG,17800 fluorescence intensity (a.u.)
5,CAGCTATATTTTACATGTTTTGAAAAGTTGACCAAGGGACCGGAGTCACCTAGTGCAG,8160 fluorescence intensity (a.u.)
6,CGATCGATCTCTGCATGGACCTAGCATGTTGCAACTTTATCGGAGTCACCTAGTGCAG,11400 fluorescence intensity (a.u.)
7,GGGATGGATGGAGGCGGCGGTGCTGAGGTGGTGGGACTGTCGGAGTCACCTAGTGCAG,8460 fluorescence intensity (a.u.)
8,TCTTTTCAGTCAGGTTAGTATGCCTGTATCTACCTCTCGCCGGAGTCACCTAGTGCAG,10400 fluorescence intensity (a.u.)
9,GGCGTGGAGGTGGGGATCTCCTGCGGGCTGTTCCACTCCGCGGAGTCACCTAGTGCAG,8530 fluorescence intensity (a.u.)
10,GCAGCAGCTTTTGGTCACGTTGCTATCAGCTTCAATTCTCCGGAGTCACCTAGTGCAG,8580 fluorescence intensity (a.u.)
11,CTACCAAGACTACCACCATCTATCTATCATTCTATCATTCCGGAGTCACCTAGTGCAG,8530 fluorescence intensity (a.u.)
12,CTTACCTTAACTTGCATTCGGCAACTTCCATCTCTTTGCACGGAGTCACCTAGTGCAG,10300 fluorescence intensity (a.u.)
13,CATCTTATTTATGACTTTGATGCTCTTTGTGATAGATTTCCGGAGTCACCTAGTGCAG,9410 fluorescence intensity (a.u.)
14,TGAACCAGTCAACTGCCACGTCTCACTATTTTTCTCTCTCCGGAGTCACCTAGTGCAG,9190 fluorescence intensity (a.u.)
15,CCTAAGAGTAAATTGCATCTTGGGTCTGTTTTTATTACCGCGGAGTCACCTAGTGCAG,8360 fluorescence intensity (a.u.)
16,AAACTCCTATCGTAAGGGAGGGTGGGGTAGGGTACCACTACGGAGTCACCTAGTGCAG,14100 fluorescence intensity (a.u.)
17,TTGTTGTCCATGTGAAAATGGATATATATAGTATTATTGTCGGAGTCACCTAGTGCAG,8220 fluorescence intensity (a.u.)
18,GTAGTAGTAGTAACATTATTTGACCAAACCGACCGACCTACGGAGTCACCTAGTGCAG,9690 fluorescence intensity (a.u.)
19,CCGCCCCGTCCTGTTCCCCAACGCTAGCTCCCATTCCCCACGGAGTCACCTAGTGCAG,8820 fluorescence intensity (a.u.)
20,CCTTTTCCAACGACTTCTTCTTCTTCCTGCTCTACCTTCTCGGAGTCACCTAGTGCAG,9560 fluorescence intensity (a.u.)
21,GAATCCAACCAAAACTTTTCTATTGTGCGCAACTATCTATCGGAGTCACCTAGTGCAG,8120 fluorescence intensity (a.u.)

# 6 successive entries from above, for reference:
row,Sequence,binding signal
4,GCTTTGGTCGGTTGGGGTGGGCTGGATGCGCCTCCGCGCTCGGAGTCACCTAGTGCAG,17800 fluorescence intensity (a.u.)
5,CAGCTATATTTTACATGTTTTGAAAAGTTGACCAAGGGACCGGAGTCACCTAGTGCAG,8160 fluorescence intensity (a.u.)
6,CGATCGATCTCTGCATGGACCTAGCATGTTGCAACTTTATCGGAGTCACCTAGTGCAG,11400 fluorescence intensity (a.u.)
7,GGGATGGATGGAGGCGGCGGTGCTGAGGTGGTGGGACTGTCGGAGTCACCTAGTGCAG,8460 fluorescence intensity (a.u.)
8,TCTTTTCAGTCAGGTTAGTATGCCTGTATCTACCTCTCGCCGGAGTCACCTAGTGCAG,10400 fluorescence intensity (a.u.)
9,GGCGTGGAGGTGGGGATCTCCTGCGGGCTGTTCCACTCCGCGGAGTCACCTAGTGCAG,8530 fluorescence intensity (a.u.)

# (continued)

row,Sequence,binding signal
1,TTTTCCCGCCTCCGATCCACTCCCATCCACACATGCATCACGGAGTCACCTAGTGCAG,9300 fluorescence intensity (a.u.)
2,ATGTGTGGTTTTGTATCTCTTTATCTGCGCACATACATAACGGAGTCACCTAGTGCAG,8900 fluorescence intensity (a.u.)
3,TCATGTGTGCTTATTTCACCCTGGCATAACCAATTTTCTACGGAGTCACCTAGTGCAG,9110 fluorescence intensity (a.u.)
4,AAAAGATCCCAACTCGTTTTCTTTCACCCTAAGATCTTTCCGGAGTCACCTAGTGCAG,8100 fluorescence intensity (a.u.)
5,CTTATCAACACCTTACTTGCTGCCTGCCTGCCTGCCTCATCGGAGTCACCTAGTGCAG,10300 fluorescence intensity (a.u.)
6,CTTCAGCCAGCGAGTTTATATTGACTTTTGCATCTTGTGCCGGAGTCACCTAGTGCAG,10300 fluorescence intensity (a.u.)
7,CTTCGTTTTCCGTACGTACGTTTCCCGAATTGCTAAACGACGGAGTCACCTAGTGCAG,8570 fluorescence intensity (a.u.)
8,GCTAAGGGTGTGGTTGGTTGCCTGGCTCGTCCCTGGCTCGCGGAGTCACCTAGTGCAG,9660 fluorescence intensity (a.u.)
9,GGTCAGTTAGTCGGTATCCGTCACGTCTCTCGTCGCAATCCGGAGTCACCTAGTGCAG,9520 fluorescence intensity (a.u.)
10,CTGGGATGCTCATGCTCTTTGCTAGCTGCCTTTGCATTACCGGAGTCACCTAGTGCAG,9120 fluorescence intensity (a.u.)
11,TTTCTGAGAGGCATAGTTCATGTTTCCCCATATATACTTCCGGAGTCACCTAGTGCAG,8830 fluorescence intensity (a.u.)
12,GTGGTATGTTAACGAATTGGTCGATTACTAAAACTAGACTCGGAGTCACCTAGTGCAG,8030 fluorescence intensity (a.u.)
13,TTTCTTTACTGATTGGTTTGTTTTATGCGCACATTGTTACCGGAGTCACCTAGTGCAG,9380 fluorescence intensity (a.u.)
14,GACACCCGTTTCCCTGACTCGATTTTCTAGGTTTCATCCACGGAGTCACCTAGTGCAG,11800 fluorescence intensity (a.u.)
15,CTGGAAAAGAAGTTGTGTGTTGTTGGTCTACATTGCATTCCGGAGTCACCTAGTGCAG,10900 fluorescence intensity (a.u.)
16,CCGCGGATTGCGTGCCAACGTTTGACTGTCCGTCTTATATCGGAGTCACCTAGTGCAG,8520 fluorescence intensity (a.u.)
17,AGTTTACAGGAACTGTGCCATTTTCTTATGTTTATCTTCACGGAGTCACCTAGTGCAG,10300 fluorescence intensity (a.u.)
18,CCACCTTATTATCTACTTTACACATATATATATTGTGGTGCGGAGTCACCTAGTGCAG,8160 fluorescence intensity (a.u.)
19,AAGGGGCAATATGGTCCAAGGGCAGGGTCGTAAATACCTACGGAGTCACCTAGTGCAG,8190 fluorescence intensity (a.u.)
20,CTTTATATAAGGCAGGTTAGATGGGTTTTTTGGGCTTGTACGGAGTCACCTAGTGCAG,9240 fluorescence intensity (a.u.)
21,ATCCCCGCGAAGCCGCCATGAATGACGCCCACCCTTCCCACGGAGTCACCTAGTGCAG,8290 fluorescence intensity (a.u.)

row,Sequence,binding signal
1,AAATCAACCAAGTTCCATTTCATTTCTTGCATCTCCAATTCGGAGTCACCTAGTGCAG,8480 fluorescence intensity (a.u.)
2,GCTGCGAGCCTCACCGTTCTTCTCGCTTGCAACATTCTGACGGAGTCACCTAGTGCAG,14000 fluorescence intensity (a.u.)
3,CAGTATCTTACTTCTCAGCTGCTCAATCATCAGCTGCCACCGGAGTCACCTAGTGCAG,9310 fluorescence intensity (a.u.)
4,TCTTTTTTCCATCCATCTTTTTTTCGCCGTTCTTTCCGGTCGGAGTCACCTAGTGCAG,8220 fluorescence intensity (a.u.)
5,CGCCGTTGACTTTTTGTTTAACGTTTGACCATTTGTCTTACGGAGTCACCTAGTGCAG,24400 fluorescence intensity (a.u.)
6,AGAAGCTTTCCGAGGGTGGGCCCGCGTCGTCAGTGTGTGACGGAGTCACCTAGTGCAG,12700 fluorescence intensity (a.u.)
7,AAGCTCTCCGACGAGCCGTATTATATTGCCACTATCCTCGCGGAGTCACCTAGTGCAG,9220 fluorescence intensity (a.u.)
8,GGAGGGAGTAGTAAATAGTGGTTTTGGTCTTGTTTCAAATCGGAGTCACCTAGTGCAG,8450 fluorescence intensity (a.u.)
9,CATGCCTGTTCACGATCTGCTGGCATTTGTGAACCATATGCGGAGTCACCTAGTGCAG,8870 fluorescence intensity (a.u.)
10,ACAAAATATTCCCTCCGTCTTAGTCGTTTTGATATTTTTCCGGAGTCACCTAGTGCAG,8060 fluorescence intensity (a.u.)
11,ACGTGTGTGGGGATCCAGTTACAGCCCAACTCGTGTTGACCGGAGTCACCTAGTGCAG,8410 fluorescence intensity (a.u.)
12,TAATAGCTTATTTTATTTTGCATGTTGTTAAAATTTTTTGCGGAGTCACCTAGTGCAG,8540 fluorescence intensity (a.u.)
13,GTATGCATGTGTTCTTCGGTGGACCGGGCCAATGTCCCAACGGAGTCACCTAGTGCAG,9060 fluorescence intensity (a.u.)
14,GACACAACCCTACATGTTTAAGGACCGTCTATATAATTTACGGAGTCACCTAGTGCAG,9990 fluorescence intensity (a.u.)
15,ATTTTATATGATTTCTTACAGACTTTTTTTATCATTTTACCGGAGTCACCTAGTGCAG,9760 fluorescence intensity (a.u.)
16,AGTATAACTTTTTTTTTGTCACTCTGTTATCTCACATCTGCGGAGTCACCTAGTGCAG,8760 fluorescence intensity (a.u.)
17,TATACGTGATTTCTCTTTTTAATTTTTTTCATAATTTTTTCGGAGTCACCTAGTGCAG,8540 fluorescence intensity (a.u.)
18,CGCATATATACGTGCGGGCCACCTTTCTAGTTTATAGTTACGGAGTCACCTAGTGCAG,8120 fluorescence intensity (a.u.)
19,AAGTGCTGCAAAACGGTATGTTTTTGTCTTTGCCATCTTGCGGAGTCACCTAGTGCAG,8140 fluorescence intensity (a.u.)
20,TATCTCGTGGCACCTGTCACCCCTCCGCTGCCGATCCGACCGGAGTCACCTAGTGCAG,10100 fluorescence intensity (a.u.)
21,GCAAGAAGCGATCGATTCGGCGTGTGCTGGATCGGTTTCCCGGAGTCACCTAGTGCAG,8180 fluorescence intensity (a.u.)
